In paper PMC9127371, “Assembly of nuclear dimers of PI3K regulatory subunits is regulated by the Cdc42-activated tyrosine kinase ACK” (The Journal of Biological Chemistry, 2022):
Results are given in words; binding and its absence hold for the method and conditions named. For part of these data: Binding seen in cells or lysates may run through a third protein. Some entries that bind do so weakly or less than the wild type. For part of these data: Tags and fused reporters may be left off the sequences shown.

Chains of the proteins cited; added tags and fusions are not shown. Lines headed by an entry give the natural chain unless they say otherwise; changes in a name come on top. A line that says so, or that is headed by a name, gives the form on record, which may keep a tag or linker. Residues count along the entry.
UniProt P27986: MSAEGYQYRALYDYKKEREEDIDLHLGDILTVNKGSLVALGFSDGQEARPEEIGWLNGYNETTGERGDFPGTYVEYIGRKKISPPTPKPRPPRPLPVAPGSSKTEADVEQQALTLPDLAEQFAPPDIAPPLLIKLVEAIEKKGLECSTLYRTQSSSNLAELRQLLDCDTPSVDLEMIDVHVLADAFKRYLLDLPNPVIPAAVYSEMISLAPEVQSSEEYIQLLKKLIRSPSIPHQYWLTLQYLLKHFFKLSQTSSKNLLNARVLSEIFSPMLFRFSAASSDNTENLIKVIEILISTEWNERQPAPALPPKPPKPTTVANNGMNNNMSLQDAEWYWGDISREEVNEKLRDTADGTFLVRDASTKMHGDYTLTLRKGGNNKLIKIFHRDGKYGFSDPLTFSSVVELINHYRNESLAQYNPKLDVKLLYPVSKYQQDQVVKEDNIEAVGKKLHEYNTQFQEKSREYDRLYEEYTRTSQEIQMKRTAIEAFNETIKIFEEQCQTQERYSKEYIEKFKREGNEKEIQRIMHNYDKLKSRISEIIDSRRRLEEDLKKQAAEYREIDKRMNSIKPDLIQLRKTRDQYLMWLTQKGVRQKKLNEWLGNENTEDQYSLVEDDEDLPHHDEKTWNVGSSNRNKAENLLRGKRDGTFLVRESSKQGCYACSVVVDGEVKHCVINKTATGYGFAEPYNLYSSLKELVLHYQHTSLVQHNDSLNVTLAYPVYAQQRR
full-length FLAG-tagged p55α (P27986, form named): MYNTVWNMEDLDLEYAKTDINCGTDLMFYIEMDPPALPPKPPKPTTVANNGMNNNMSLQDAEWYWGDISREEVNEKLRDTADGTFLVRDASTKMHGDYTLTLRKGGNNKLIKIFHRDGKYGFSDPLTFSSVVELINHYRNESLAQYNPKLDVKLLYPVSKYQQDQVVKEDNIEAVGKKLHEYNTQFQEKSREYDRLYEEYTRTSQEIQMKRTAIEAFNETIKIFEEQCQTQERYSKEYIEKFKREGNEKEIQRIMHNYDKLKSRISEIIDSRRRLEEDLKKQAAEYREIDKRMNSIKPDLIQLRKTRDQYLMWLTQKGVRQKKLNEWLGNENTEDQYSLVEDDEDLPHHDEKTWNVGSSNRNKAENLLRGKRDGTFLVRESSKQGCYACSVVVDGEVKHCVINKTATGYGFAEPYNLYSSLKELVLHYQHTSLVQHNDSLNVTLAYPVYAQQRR
full-length FLAG-tagged p50α (P27986, form named): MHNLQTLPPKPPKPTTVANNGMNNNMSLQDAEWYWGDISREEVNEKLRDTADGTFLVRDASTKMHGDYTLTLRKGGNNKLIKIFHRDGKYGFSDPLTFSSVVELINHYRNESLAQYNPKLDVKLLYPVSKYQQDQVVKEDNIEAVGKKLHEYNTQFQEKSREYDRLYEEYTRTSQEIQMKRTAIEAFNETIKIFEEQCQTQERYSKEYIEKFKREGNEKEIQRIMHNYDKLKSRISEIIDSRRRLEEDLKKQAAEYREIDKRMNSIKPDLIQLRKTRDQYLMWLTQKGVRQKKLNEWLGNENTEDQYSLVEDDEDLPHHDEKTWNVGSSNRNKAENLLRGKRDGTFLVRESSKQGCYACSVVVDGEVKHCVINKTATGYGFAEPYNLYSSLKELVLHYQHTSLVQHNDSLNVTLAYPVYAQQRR
FLAG-tagged Y307D p50α (P27986, form named): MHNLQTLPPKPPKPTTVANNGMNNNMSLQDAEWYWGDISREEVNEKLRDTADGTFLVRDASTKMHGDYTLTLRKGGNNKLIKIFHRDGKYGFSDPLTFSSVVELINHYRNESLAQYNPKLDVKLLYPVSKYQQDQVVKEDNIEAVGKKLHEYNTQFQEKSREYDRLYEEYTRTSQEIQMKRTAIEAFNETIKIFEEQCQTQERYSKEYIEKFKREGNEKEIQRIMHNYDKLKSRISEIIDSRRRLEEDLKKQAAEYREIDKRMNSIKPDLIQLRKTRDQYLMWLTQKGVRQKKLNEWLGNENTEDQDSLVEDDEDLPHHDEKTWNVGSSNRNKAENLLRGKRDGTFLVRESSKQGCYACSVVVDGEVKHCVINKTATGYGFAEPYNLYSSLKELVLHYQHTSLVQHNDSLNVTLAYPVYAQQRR
UniProt O08908: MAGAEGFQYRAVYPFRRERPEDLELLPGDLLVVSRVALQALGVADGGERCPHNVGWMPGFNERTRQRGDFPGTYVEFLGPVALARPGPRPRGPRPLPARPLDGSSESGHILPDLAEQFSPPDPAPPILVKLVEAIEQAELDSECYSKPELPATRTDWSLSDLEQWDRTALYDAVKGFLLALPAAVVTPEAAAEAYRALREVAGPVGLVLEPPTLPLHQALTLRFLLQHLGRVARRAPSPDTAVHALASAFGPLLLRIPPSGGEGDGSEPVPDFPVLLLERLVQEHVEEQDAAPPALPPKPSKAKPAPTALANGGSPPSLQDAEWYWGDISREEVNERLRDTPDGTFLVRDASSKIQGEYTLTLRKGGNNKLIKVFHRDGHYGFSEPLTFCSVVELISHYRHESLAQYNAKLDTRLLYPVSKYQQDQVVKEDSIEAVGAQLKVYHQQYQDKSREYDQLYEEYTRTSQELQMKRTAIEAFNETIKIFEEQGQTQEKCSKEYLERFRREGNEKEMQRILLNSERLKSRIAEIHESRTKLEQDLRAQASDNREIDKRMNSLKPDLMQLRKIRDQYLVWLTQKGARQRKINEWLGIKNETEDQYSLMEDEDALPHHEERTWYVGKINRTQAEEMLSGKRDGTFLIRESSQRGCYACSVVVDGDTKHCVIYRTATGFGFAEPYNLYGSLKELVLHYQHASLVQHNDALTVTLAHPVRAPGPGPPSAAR
UniProt O00459, residues 342-728: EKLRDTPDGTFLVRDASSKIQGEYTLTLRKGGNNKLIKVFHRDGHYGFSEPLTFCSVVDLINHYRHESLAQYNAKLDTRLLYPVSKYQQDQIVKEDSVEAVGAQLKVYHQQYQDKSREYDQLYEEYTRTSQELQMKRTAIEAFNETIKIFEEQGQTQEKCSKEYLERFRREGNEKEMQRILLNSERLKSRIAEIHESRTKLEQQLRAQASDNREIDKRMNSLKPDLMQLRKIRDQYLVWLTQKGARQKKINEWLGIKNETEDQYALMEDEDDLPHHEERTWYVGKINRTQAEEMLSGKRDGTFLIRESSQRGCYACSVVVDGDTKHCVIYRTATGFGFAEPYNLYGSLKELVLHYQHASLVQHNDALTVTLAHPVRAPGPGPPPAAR

Tests used:
[1] = molecular target: T1, ACK (1–489), Gal4 DNA-binding domain fusion (yeast two-hybrid bait) (UniProt Q07912); assay: two-hybrid; ACK(1–489) fused to the Gal4 DNA-binding domain, integrated in yeast Y190::ADE2, screened against a pACT2 human brain cDNA library (Gal4 activation domain); β-galactosidase read-out
T1 sequence: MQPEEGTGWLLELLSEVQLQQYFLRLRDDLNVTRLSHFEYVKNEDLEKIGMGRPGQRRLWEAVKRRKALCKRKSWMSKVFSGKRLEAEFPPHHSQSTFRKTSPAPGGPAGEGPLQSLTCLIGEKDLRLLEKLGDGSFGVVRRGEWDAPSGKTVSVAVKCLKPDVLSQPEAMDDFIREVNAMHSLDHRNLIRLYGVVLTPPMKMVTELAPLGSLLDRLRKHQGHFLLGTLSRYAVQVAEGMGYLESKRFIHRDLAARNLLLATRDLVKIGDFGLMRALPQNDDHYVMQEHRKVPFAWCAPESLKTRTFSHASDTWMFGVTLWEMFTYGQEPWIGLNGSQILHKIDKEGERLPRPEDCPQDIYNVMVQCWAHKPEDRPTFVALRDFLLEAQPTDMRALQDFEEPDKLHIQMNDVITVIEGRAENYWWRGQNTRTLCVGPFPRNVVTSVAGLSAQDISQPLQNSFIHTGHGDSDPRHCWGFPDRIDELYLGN

[2] = molecular target: full-length FLAG-tagged p85α (human) (UniProt P27986); assay: co-IP; nuclear-enriched fraction of transfected HEK293T cells (for ACK with p85α with or without 8 μM AIM-100); anti-FLAG immunoprecipitation, blot with anti-HA or anti-V5
[3] = molecular target: full-length FLAG-tagged p85α (human) (UniProt P27986); assay: co-IP; HA-ACK co-expressed with FLAG-tagged regulatory subunit in HEK293T; anti-FLAG immunoprecipitation from whole cell lysate (1% Triton X-100, 150 mM NaCl, pH 7.5); blot with anti-ACK
[4] = molecular target: full-length FLAG-tagged p55α (human) (UniProt P27986); assay: as above
[5] = molecular target: full-length FLAG-tagged p55γ (human) (UniProt Q92569); assay: as above
[6] = molecular target: full-length FLAG-tagged p85β (mouse) (UniProt O08908); assay: as above
[7] = molecular target: full-length FLAG-tagged p50α (human) (UniProt P27986); assay: as above
[8] = molecular target: full-length FLAG-tagged p50α (human) (UniProt P27986); assay: co-IP; nuclear-enriched fraction of transfected HEK293T cells (for ACK with p85α with or without 8 μM AIM-100); anti-FLAG immunoprecipitation, blot with anti-HA or anti-V5
[9] = molecular target: full-length FLAG-tagged p85α (human) (UniProt P27986); assay: co-IP; FLAG-p50α, FLAG-p85α or FLAG-p50α Y307D co-expressed with V5-p85β in HEK293T; 10% serum, or 0.05% serum for 16 h untreated or with EGF (100 ng/ml, 5 min) or insulin (100 μg/ml, 90 min); anti-FLAG immunoprecipitation from whole cell lysate, blot with anti-V5
[10] = molecular target: full-length FLAG-tagged p50α (human) (UniProt P27986); assay: as above
[11] = molecular target: FLAG-tagged Y307D p50α (human) (UniProt P27986); assay: as above
[12] = molecular target: full-length FLAG-tagged p85α (human) (UniProt P27986); assay: co-IP; cytoplasmic fraction of transfected HEK293T cells (for ACK with p85α with or without 8 μM AIM-100); anti-FLAG immunoprecipitation, blot with anti-HA or anti-V5

Measured: binding

p55γ (120–461), Gal4 activation domain fusion (two-hybrid prey) (from UniProt Q92569 120-461) (domain or fragment)
binds: [1]

full-length HA-ACK (from UniProt Q07912 1-1038) (enzyme)
binds: [2] | [3] | [4] | [5] | [6] | [7]

V5-p85β (from UniProt O08908 1-722)
binds: [2] | [8] | [9] | [10] | [11] | [12]

p85α (479–724), Gal4 activation domain fusion (two-hybrid prey) (from UniProt P27986 479-724) (domain or fragment)
binds: [1]

p85β (342–728), Gal4 activation domain fusion (two-hybrid prey) (from UniProt O00459 342-728) (domain or fragment)
binds: [1]
